From patent US4845195A, “Inhibitor of ribonucleotide reductase” (Merck & Co., Inc., priority 1987, dated 1989)
Part of at least one peptide drawing is inferred or uncertain, most often the ends. For at least one compound, name, drawing or mass did not settle the structure.

Chains of the proteins cited; added tags and fusions are not shown. Lines headed by an entry give the natural chain unless they say otherwise; changes in a name come on top.
UniProt P89462: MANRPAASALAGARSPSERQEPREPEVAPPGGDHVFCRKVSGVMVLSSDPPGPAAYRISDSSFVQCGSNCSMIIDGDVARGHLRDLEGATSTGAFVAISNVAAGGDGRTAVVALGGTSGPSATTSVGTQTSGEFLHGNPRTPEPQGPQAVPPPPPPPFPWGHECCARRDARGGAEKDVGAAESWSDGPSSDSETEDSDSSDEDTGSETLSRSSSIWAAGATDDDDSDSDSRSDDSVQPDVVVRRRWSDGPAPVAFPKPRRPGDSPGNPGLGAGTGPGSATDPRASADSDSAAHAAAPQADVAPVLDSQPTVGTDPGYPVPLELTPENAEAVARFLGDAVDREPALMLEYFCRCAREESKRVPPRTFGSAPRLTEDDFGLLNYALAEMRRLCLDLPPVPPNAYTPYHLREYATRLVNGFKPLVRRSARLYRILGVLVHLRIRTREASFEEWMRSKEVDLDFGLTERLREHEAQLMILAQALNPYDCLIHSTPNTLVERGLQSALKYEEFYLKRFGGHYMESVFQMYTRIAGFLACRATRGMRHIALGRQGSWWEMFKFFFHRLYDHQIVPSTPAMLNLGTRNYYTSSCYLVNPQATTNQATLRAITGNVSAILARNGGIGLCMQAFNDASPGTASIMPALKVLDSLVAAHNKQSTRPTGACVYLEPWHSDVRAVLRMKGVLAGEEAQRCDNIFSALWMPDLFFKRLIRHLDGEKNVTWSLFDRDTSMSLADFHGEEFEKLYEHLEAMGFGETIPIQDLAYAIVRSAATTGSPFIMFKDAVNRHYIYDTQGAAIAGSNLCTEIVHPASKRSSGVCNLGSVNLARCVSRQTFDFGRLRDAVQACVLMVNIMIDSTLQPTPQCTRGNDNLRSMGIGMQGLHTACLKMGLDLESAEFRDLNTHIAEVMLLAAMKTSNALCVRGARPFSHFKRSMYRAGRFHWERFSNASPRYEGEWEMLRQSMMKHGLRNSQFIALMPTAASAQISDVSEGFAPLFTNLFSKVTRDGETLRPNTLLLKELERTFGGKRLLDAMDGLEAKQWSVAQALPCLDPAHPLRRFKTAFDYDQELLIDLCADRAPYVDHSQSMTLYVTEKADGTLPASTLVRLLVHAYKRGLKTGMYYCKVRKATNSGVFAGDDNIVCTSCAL

Molecular target: T1, Herpes Simplex Virus Ribonucleotide Reductase (Human herpesvirus 2, UniProt P89462)
T1 construct: HSV RR was purified from Baby Hamster Kidney cells that were cultured with HSV2 Strain 186; made in house; host or cells: Baby Hamster Kidney cells infected with HSV2 Strain 186
Assay: Assay of Inhibition of HSV RR Activity (reduction of tritiated cytidine-diphosphate)
Type: biochemical, HSV2 Strain 186
Protocol: After infection, cells were harvested and lysed. Crude HSV RR was prepared as described by Huszar et al., J. Virol.
HSV RR activity was determined as the ability of the enzyme to catalyze the reduction of tritiated cytidine-diphosphate to deoxyribo-cytidinediphosphate in 30 minutes at 37°C. in the presence of dithiothreitol and MgCl2. Activity of oligopeptide inhibitors was determined by adding them to the reaction mix at the beginning of the incubation. Enzyme was not preincubated with inhibitor.
These were analyzed for amino acid composition and in some cases sequenced. Dry peptides were resuspended in 100 mM HEPES (pH 8.0) at about 2mM, relyophilized, and stored in aliquots at -80° C. Immediately prior to use they were rehydrated with distilled H2 O and centrifuged to remove any undissolved peptide.

| SMILES | IC50 (30 minutes at 37°C, dithiothreitol and MgCl2, enzyme not preincubated with inhibitor, read-out: IC50 (μM concentration of peptide producing 50% inhibition of enzyme activity)) [µM] | inhibition of the activity of the ribonucleotide reductase enzyme in vitro (in words) (in vitro) |
| --- | --- | --- |
| CC(=O)N[C@@H](Cc1cc(I)c(O)c(I)c1)C(=O)N[C@@H](C)C(=O)NCC(=O)N[C@@H](C)C(=O)N[C@H](C(=O)N[C@H](C(=O)N[C@@H](CC(N)=O)C(=O)N[C@@H](CC(=O)O)C(=O)N[C@@H](CC(C)C)C(=O)O)C(C)C)C(C)C [AcdI--YAGAVVNDL, AcdI-YAGAVVNDL] | 16 |  |
| CC(C)C[C@H](NC(=O)[C@H](CC(=O)O)NC(=O)[C@H](CC(N)=O)NC(=O)[C@@H](NC(=O)[C@@H](N)C(C)C)C(C)C)C(=O)O [VVNDL, Val Val Asn Asp Leu] |  | inhibits the activity |
